Here are results for 21 compounds from PubChem BioAssay AID248 (DTP/NCI, 2004).

SMILES strings stand for the structures. The list does not hold the whole screen: it gathers tests that were run many times, whatever their T/C, doses with no T/C, and many T/C values between a quarter and a half above the control. Further doses and runs are listed elsewhere. T/C: endpoint of the treated group in % of that of the vehicle group. Some doses have a count of surviving animals in place of a T/C: the source holds a T/C of zero for them, seemingly a mark for toxic or unscored doses. Some doses without a T/C left all or most animals alive at the check, yet need not have been tolerated: the source hardly ever lists a survival T/C far under the control, and the zero likely stands for such cases as well. Survivors were counted at the toxicity check, usually on the fifth day, unless a day is given; later deaths do not show. Schedules are NCI's codes, read here as Q, the interval in days (D) or hours (H), X, the number of doses. Some schedule codes hold Z or #, which are not explained here. For survival time, this PubChem deposit counts one and a half times the control or more as active, and values a quarter to a half above the control carry no call in these data; other NCI protocols may use other cut-offs. Some entries hold several experiments; their values stand side by side, smallest first. Some T/C values are followed by the survivors on the day toxicity was checked, most often the fifth; where none is given, no animal had died by that day.

In the assay the test system is L1210 leukemia ip in BDF1 mice, survival T/C. Briefly: NCI In Vivo Anticancer Drug Screen. Data for tumor model L1210 Leukemia (intraperitoneal) in B6D2F1 (BDF1) mice. The note with it: T/C endpoint: mean survival time, higher T/C = longer survival.
[1] abbreviates: dose: 62.0 mg/kg/injection, schedule: Q01DX Z (ip), vehicle: carboxymethylcellulose (CMC).
The mark [2] stands for this setting: dose: 500.0 mg/kg/injection, schedule: Q01DX Z (ip), vehicle: carboxymethylcellulose (CMC).
[3] abbreviates: dose: 400.0 mg/kg/injection, schedule: Q04DX003 (ip), vehicle: saline with Tween-80.

As to `CCN(CC)CCCNc1cc(C)c(C)cc1[N+](=O)[O-]`, the survivor count reads like this: (dose: 200.0 mg/kg/injection, schedule: Q04DX003 (ip), vehicle: saline) 2 of 6; (dose: 400.0 mg/kg/injection, schedule: Q04DX003 (ip), vehicle: saline) 0 of 6.
In the case of `O=C(Nc1ccc(C2=NCCN2)cc1)c1cncc(C(=O)Nc2ccc(C3=NCCN3)cc2)n1`, the T/C under setting [1] was 129 % of control. The survivor count was 0 of 6 (dose: 375.0 mg/kg/injection, schedule: Q01DX Z (ip), vehicle: carboxymethylcellulose (CMC)) and 0 of 6 under setting [2].
In the case of `CC(C)=CCC/C(C)=C/Cn1cnc2c(ncn2C2OC(CO)C(O)C2O)c1=O` (configuration not stated), the survivor count reads like this: (dose: 100.0 mg/kg/injection, schedule: Q01DX005 (ip), vehicle: saline) 3 of 6; (dose: 200.0 mg/kg/injection, schedule: Q01DX005 (ip), vehicle: saline) 3 of 6.
On to `CN1C2CC(OC3CCCCO3)C(C2)N1C` (configuration not stated), for which the T/C (dose: 200.0 mg/kg/injection, schedule: Q04DX003 (ip), vehicle: saline with Tween-80) was 131 % of control.
Turning to `O=[As](O)(O)c1ccc(N=NSc2ncnc3nc[nH]c23)cc1`, for the setting “dose: 30.0 mg/kg/injection, schedule: Q01DX015 (ip), vehicle: carboxymethylcellulose (CMC)”, the T/C is 125 % of control [4 of 6 alive]. Further, the survivor count (dose: 60.0 mg/kg/injection, schedule: Q01DX015 (ip), vehicle: carboxymethylcellulose (CMC)) is 1 of 6.
Consider `O=C(Nc1ccc(C2=NCCCN2)cc1)Nc1ccc(NC(=O)Nc2ccc(C3=NCCCN3)cc2)c(Cl)c1`, for which the T/C (dose: 8.0 mg/kg/injection, schedule: Q01DX Z (ip), vehicle: carboxymethylcellulose (CMC)) is 126 % of control; the T/C (dose: 16.0 mg/kg/injection, schedule: Q01DX Z (ip), vehicle: carboxymethylcellulose (CMC)) was 137 % of control; the T/C (dose: 31.0 mg/kg/injection, schedule: Q01DX Z (ip), vehicle: carboxymethylcellulose (CMC)) was 131 % of control; the T/C under setting [1] is 127 % of control. For the same compound, the survivor count runs as follows: (dose: 125.0 mg/kg/injection, schedule: Q01DX Z (ip), vehicle: carboxymethylcellulose (CMC)) 6 of 6; (dose: 250.0 mg/kg/injection, schedule: Q01DX Z (ip), vehicle: carboxymethylcellulose (CMC)) 5 of 6; under setting [2], 3 of 6.
On to `OC1COC(Cl)C(O)C1O` (configuration not stated), for which, under setting [3], the survivor count is recorded as 0 of 6.
As to `CN(C)c1ccc(/C=N/NC(=O)c2cccc3ccccc23)c(Cl)c1`, the survivor count runs as follows: (dose: 100.0 mg/kg/injection, schedule: Q01DX001 (ip), vehicle: saline) 4 of 4; (dose: 200.0 mg/kg/injection, schedule: Q01DX001 (ip), vehicle: saline) 4 of 4.
Turning to `O=C(NCCF)NC1CS(=O)(=O)CS(=O)(=O)C1`, the survivor count was 0 of 6 (dose: 75.0 mg/kg/injection, schedule: Q01DX001 (ip), vehicle: other); 0 of 6 (dose: 150.0 mg/kg/injection, schedule: Q01DX001 (ip), vehicle: other); 0 of 6 (dose: 300.0 mg/kg/injection, schedule: Q01DX001 (ip), vehicle: other).
For `O=C1C(Cl)=C(c2ccccc2)C(=O)C(Cl)=C1c1ccccc1`, for the setting “dose: 400.0 mg/kg/injection, schedule: Q01DX001 (ip), vehicle: other”, the survivor count was 1 of 6.
Consider `O=C1NC(C2CCC3CN32)C(=O)NC1C1CCC2CN21` (configuration not stated), for which the T/C is, setting by setting: (dose: 0.8 mg/kg/injection, schedule: Q01DX009 (ip), vehicle: saline) 126 % of control; (dose: 1.1 mg/kg/injection, schedule: Q01DX009 (ip), vehicle: saline) 136 % of control; (dose: 1.8 mg/kg/injection, schedule: Q01DX009 (ip), vehicle: saline) 134 and 149 % of control; (dose: 4.0 mg/kg/injection, schedule: Q01DX001 (ip), vehicle: Klucel (hydroxypropylcellulose) (HPC)) 130 % of control; (dose: 7.0 mg/kg/injection, schedule: Q01DX001 (ip), vehicle: Klucel (hydroxypropylcellulose) (HPC)) 136 % of control; (dose: 8.0 mg/kg/injection, schedule: Q01DX001 (ip), vehicle: Klucel (hydroxypropylcellulose) (HPC)) 142 % of control. Further, the T/C (dose: 10.5 mg/kg/injection, schedule: Q01DX001 (ip), vehicle: Klucel (hydroxypropylcellulose) (HPC)) was 144 % of control. The survivor count runs as follows: (dose: 20.0 mg/kg/injection, schedule: Q01DX009 (ip), vehicle: saline) 6 of 6; (dose: 40.0 mg/kg/injection, schedule: Q01DX009 (ip), vehicle: saline) 5 of 6.
For `CC1=CC(c2ccc3c(c2)OCO3)c2c(c3ccccc3oc2=O)O1` (configuration not stated), the survivor count (dose: 100.0 mg/kg/injection, schedule: Q01DX009 (ip), vehicle: water) was 1 of 6; the survivor count (dose: 200.0 mg/kg/injection, schedule: Q01DX009 (ip), vehicle: water) is 2 of 6; the survivor count (dose: 400.0 mg/kg/injection, schedule: Q01DX009 (ip), vehicle: water) was 1 of 6.
On to `Cc1coc2c1[C@@H](O)[C@]1(C)[C@@H](C)CC[C@H](O)[C@]1(O)C2`, for which the survivor count (dose: 400.0 mg/kg/injection, schedule: Q01DX001 (ip), vehicle: saline) was 0 of 6.
As for `CC1=CC(C)(C)NC(=S)N1CCO`, the survivor count is, setting by setting: (dose: 49.0 mg/kg/injection, schedule: Q01DX Z (ip), vehicle: methylcellulose (MC)) 5 of 6; (dose: 112.0 mg/kg/injection, schedule: Q01DX Z (ip), vehicle: methylcellulose (MC)) 4 of 6; (dose: 168.0 mg/kg/injection, schedule: Q01DX Z (ip), vehicle: methylcellulose (MC)) 3 of 6; (dose: 400.0 mg/kg/injection, schedule: Q04DX002 (ip), vehicle: Klucel (hydroxypropylcellulose) (HPC)) 1 of 3.
As to `OCCN(Cc1ccccc1)Cc1ccccc1`, the survivor count under setting [3] is 0 of 6.
For the compound `CC(C)=CCNc1ncnc2c1c(C#N)cn2C1OC(CO)C(O)C1O` (configuration not stated), the survivor count is, setting by setting: (dose: 3.12 mg/kg/injection, schedule: Q01DX005 (ip), vehicle: saline) 6 of 6; (dose: 6.25 mg/kg/injection, schedule: Q01DX005 (ip), vehicle: saline) 5 of 6; (dose: 12.5 mg/kg/injection, schedule: Q01DX005 (ip), vehicle: saline) 2 of 6; (dose: 25.0 mg/kg/injection, schedule: Q01DX005 (ip), vehicle: saline) 0 of 6; (dose: 50.0 mg/kg/injection, schedule: Q01DX005 (ip), vehicle: saline) 0 of 6.
In the case of `Nc1sc(C(=O)O)cc1[N+](=O)[O-]`, under “dose: 100.0 mg/kg/injection, schedule: Q01DX001 (ip), vehicle: carboxymethylcellulose (CMC)”, the survivor count is listed as 4 of 4.
As to `Cc1ccc(S(=O)(=O)Oc2ccc3ccccc3c2)cc1`, the survivor count is, setting by setting: (dose: 200.0 mg/kg/injection, schedule: Q01DX009 (ip), vehicle: saline with Tween-80) 6 of 6; (dose: 400.0 mg/kg/injection, schedule: Q01DX009 (ip), vehicle: saline with Tween-80) 6 of 6.
For the compound `CCOc1cc[n+]([O-])cc1C`, the survivor count is recorded as 0 of 4 (dose: 200.0 mg/kg/injection, schedule: Q01DX001 (ip), vehicle: carboxymethylcellulose (CMC)) and 0 of 4 (dose: 400.0 mg/kg/injection, schedule: Q01DX001 (ip), vehicle: carboxymethylcellulose (CMC)).
Consider `OB1[O][Sn]([c]2ccccc2)([c]2ccccc2)[O]1`, for which the survivor count is given as 1 of 3 (dose: 100.0 mg/kg/injection, schedule: Q04DX002 (ip), vehicle: saline with Tween-80); 0 of 3 (dose: 200.0 mg/kg/injection, schedule: Q04DX002 (ip), vehicle: saline with Tween-80); 0 of 3 (dose: 400.0 mg/kg/injection, schedule: Q04DX002 (ip), vehicle: saline with Tween-80).
As to `CSC(=S)NNC(=O)c1ccc(C)cc1`, the survivor count runs as follows: (dose: 150.0 mg/kg/injection, schedule: Q01DX001 (ip), vehicle: saline) 3 of 6; (dose: 300.0 mg/kg/injection, schedule: Q01DX001 (ip), vehicle: saline) 0 of 6.
